Experimental data published in article PMC7648012.

Target: T1, 3×FLAG-LSH (wild type) (human) (UniProt Q9NRZ9)
T1 sequence: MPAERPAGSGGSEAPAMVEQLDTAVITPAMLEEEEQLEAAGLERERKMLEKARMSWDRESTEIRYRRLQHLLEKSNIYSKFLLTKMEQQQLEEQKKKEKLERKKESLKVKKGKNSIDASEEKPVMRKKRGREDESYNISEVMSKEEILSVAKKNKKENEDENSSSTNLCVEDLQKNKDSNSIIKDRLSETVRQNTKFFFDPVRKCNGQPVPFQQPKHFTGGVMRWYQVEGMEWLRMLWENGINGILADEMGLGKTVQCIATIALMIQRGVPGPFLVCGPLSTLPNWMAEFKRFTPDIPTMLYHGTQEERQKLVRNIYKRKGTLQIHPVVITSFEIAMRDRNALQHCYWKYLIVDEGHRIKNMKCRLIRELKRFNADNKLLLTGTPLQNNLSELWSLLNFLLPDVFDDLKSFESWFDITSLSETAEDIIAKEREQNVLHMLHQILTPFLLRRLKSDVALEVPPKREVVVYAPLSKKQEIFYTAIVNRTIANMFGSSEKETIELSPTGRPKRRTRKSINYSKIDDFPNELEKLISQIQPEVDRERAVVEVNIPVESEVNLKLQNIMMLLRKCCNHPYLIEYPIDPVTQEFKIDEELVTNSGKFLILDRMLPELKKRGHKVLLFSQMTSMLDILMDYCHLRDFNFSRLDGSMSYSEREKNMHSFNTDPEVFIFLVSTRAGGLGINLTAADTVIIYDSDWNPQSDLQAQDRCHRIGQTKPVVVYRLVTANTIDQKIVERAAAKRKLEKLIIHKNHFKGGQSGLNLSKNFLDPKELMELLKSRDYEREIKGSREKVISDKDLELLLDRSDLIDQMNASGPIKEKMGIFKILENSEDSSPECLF
Assay: co-IP; Flag-IP from lysate of U2OS cells stably expressing 3×FLAG-LSH (WT or ICF4 mutant); IP lysis buffer 25 mM Tris-HCl pH 7.4, 150 mM NaCl, 1% NP-40, 1 mM EDTA, 5% glycerol; 4 °C overnight; Protein G magnetic beads; western blot

Which binding does the source give for macroH2A1 (from UniProt O75367-1) here?
Its binding is “binds”.

Results are given in words; binding and its absence hold for the method and conditions named. In cells and extracts the contact can be indirect. Binding can be weak; no strength is given. Where a sequence is shown, tags or fusion partners need not be part of it.
